Substitutions are numbered along the chain they refer to. Construct, isoform or probe ends are uncertain for at least one entry. For some of these results: No signal at the amounts used counts as a negative. For some of these results: A weaker result is weaker than the reference pair of the same experiment. For some of these results: At least one verdict rests on a figure or table, not on a statement of the authors. For some of these results: Where a protein sequence is shown, tags need not be part of it.
Legend:
GbLFYΔTE (Ginkgo biloba) [1] = assay: EMSA; settings: EMSA: 20 mM Tris-HCl pH 7.5, 150 mM NaCl, 1% glycerol, 0.25 mM EDTA, 2 mM MgCl2, 0.01% Tween-20, 3 mM TCEP, 28 ng/ml fish sperm DNA, 10 nM probe, 25-500 nM protein, recombinant protein, protein details: N-terminal 6xHis, label: Cy3 or Cy5-dCTP by end filling
[2] = system: GbLFYΔ (WT) (Ginkgo biloba); assay: EMSA; settings: EMSA: 20 mM Tris-HCl pH 7.5, 150 mM NaCl, 1% glycerol, 0.25 mM EDTA, 2 mM MgCl2, 0.01% Tween-20, 3 mM TCEP, 28 ng/ml fish sperm DNA, 10 nM probe, 25-500 nM protein, recombinant protein, protein details: N-terminal 6xHis (pETM-11), label: Cy3 or Cy5-dCTP by end filling
[3] = system: GbLFYΔTERE (Ginkgo biloba); assay: EMSA; settings: EMSA: 20 mM Tris-HCl pH 7.5, 150 mM NaCl, 1% glycerol, 0.25 mM EDTA, 2 mM MgCl2, 0.01% Tween-20, 3 mM TCEP, 28 ng/ml fish sperm DNA, 10 nM probe, 25-500 nM protein, recombinant protein, protein details: N-terminal 6xHis, label: Cy3 or Cy5-dCTP by end filling
GbLFYΔRE (Ginkgo biloba) = assay: EMSA; settings: EMSA: 20 mM Tris-HCl pH 7.5, 150 mM NaCl, 1% glycerol, 0.25 mM EDTA, 2 mM MgCl2, 0.01% Tween-20, 3 mM TCEP, 28 ng/ml fish sperm DNA, 10 nM probe, 25-500 nM protein, recombinant protein, protein details: N-terminal 6xHis, label: Cy3 or Cy5-dCTP by end filling
GbLFYΔTE (Ginkgo biloba) [4] = assay: SEC-MALLS; settings: 60 uM protein, 15 uM DNA, dimer on DNA; recombinant protein; protein details: N-terminal 6xHis; label: Cy3 or Cy5-dCTP by end filling
[5] = system: GbLFYΔ (WT) (Ginkgo biloba); assay: SEC-MALLS; settings: 60 uM protein, 15 uM DNA, dimer on DNA; recombinant protein; protein details: N-terminal 6xHis (pETM-11); label: Cy3 or Cy5-dCTP by end filling
[6] = target: T1, AtLFYTERE T75E,R112E (Arabidopsis thaliana) (UniProt Q00958); assay: EMSA; settings: 500 nM; EMSA: 20 mM Tris-HCl pH 7.5, 150 mM NaCl, 1% glycerol, 0.25 mM EDTA, 2 mM MgCl2, 0.01% Tween-20, 3 mM TCEP, 28 ng/ml fish sperm DNA, 10 nM probe, 25-500 nM protein; recombinant protein; residues 1-420; protein details: C-terminal 6xHis; label: Cy3 or Cy5-dCTP by end filling
T1 sequence (looked up): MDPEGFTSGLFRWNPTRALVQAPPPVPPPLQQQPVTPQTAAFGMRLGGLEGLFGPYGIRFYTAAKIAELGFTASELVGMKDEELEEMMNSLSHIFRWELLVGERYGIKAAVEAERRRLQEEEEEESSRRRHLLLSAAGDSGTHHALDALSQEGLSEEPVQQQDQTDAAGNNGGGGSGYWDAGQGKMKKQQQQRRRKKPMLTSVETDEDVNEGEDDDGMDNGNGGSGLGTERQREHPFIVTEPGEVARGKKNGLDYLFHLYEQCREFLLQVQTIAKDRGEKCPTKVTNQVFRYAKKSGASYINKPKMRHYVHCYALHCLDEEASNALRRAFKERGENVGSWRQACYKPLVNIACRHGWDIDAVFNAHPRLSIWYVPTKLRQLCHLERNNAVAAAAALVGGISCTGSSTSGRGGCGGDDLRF

[7] = target: T2, AtLFYTE T75E (Arabidopsis thaliana) (UniProt Q00958); assay: EMSA; settings: 500 nM; EMSA: 20 mM Tris-HCl pH 7.5, 150 mM NaCl, 1% glycerol, 0.25 mM EDTA, 2 mM MgCl2, 0.01% Tween-20, 3 mM TCEP, 28 ng/ml fish sperm DNA, 10 nM probe, 25-500 nM protein; recombinant protein; residues 1-420; protein details: C-terminal 6xHis; label: Cy3 or Cy5-dCTP by end filling
T2 sequence (looked up): T1 sequence (looked up) with E112R

[8] = target: T3, AtLFYRE R112E (Arabidopsis thaliana) (UniProt Q00958); assay: EMSA; settings: 500 nM; EMSA: 20 mM Tris-HCl pH 7.5, 150 mM NaCl, 1% glycerol, 0.25 mM EDTA, 2 mM MgCl2, 0.01% Tween-20, 3 mM TCEP, 28 ng/ml fish sperm DNA, 10 nM probe, 25-500 nM protein; recombinant protein; residues 1-420; protein details: C-terminal 6xHis; label: Cy3 or Cy5-dCTP by end filling
T3 sequence (looked up): T1 sequence (looked up) with E75T

[9] = impaired tetramer formation at low concentration
[10] = very little binding, up to 500 nM
[11] = 500 nM, dimer plus weak monomer, dissociates at lower fish DNA than WT

“CGTTTAAATTTAATCCAATGGTTACAATTTTAATACTATCAAATGTCTATTGGATTTATACCCAATGTGTTAATGGGTTG (double strand) [AGI-II]”: binds more weakly (GbLFYΔTE (Ginkgo biloba) [1]; [9]); binds ([2]; 25-250 nM, mainly tetramer (two dimers)); binds more weakly [3, 9]. “CGTTTAAATTTAATCCAATGGTTACAATTTTAATACTATCAAATGTCTATTGGATTTATACCCAATGTGTTAATGGGTTG (double strand) [AGI-II]”: binds more weakly (GbLFYΔRE (Ginkgo biloba); [9]).
“GTTGGGGAAGGAAAAGTAATCCGTACAATGT (double strand) [AP1m]”: no binding ([2]; up to 500 nM); binds more weakly ([3]; weak monomeric complex).
“GTTGGGGAAGGAAAAGTGGTCCGTACAATGT (double strand) [AP1m1]”: binds more weakly [2, 10]; binds ([3]; binds as monomer).
“GTTGGGGAAGGACCAGTAATCCGTACAATGT (double strand) [AP1m2]”: binds more weakly [2, 10]; binds ([3]; binds as monomer).
“GTTGGGGAAGGACCAGTGGTCCGTACAATGT (double strand) [AP1]”: binds (GbLFYΔTE (Ginkgo biloba) [4]); binds [5]; binds [6]. “GTTGGGGAAGGACCAGTGGTCCGTACAATGT (double strand) [AP1]”: binds (GbLFYΔTE (Ginkgo biloba) [1]; [11]); binds ([2]; 50-500 nM, dimer); binds [7]. “GTTGGGGAAGGACCAGTGGTCCGTACAATGT (double strand) [AP1]”: binds ([3]; same apparent affinity as WT, mostly dimer, weak monomer complex); binds (GbLFYΔRE (Ginkgo biloba); [11]); binds [8].

Reference: PMC4844672 (Nature Communications, 2016)
